# Laboratory results published in paper PMC4661536.
# Chains of the proteins cited; added tags and fusions are not shown. Residues count along the entry.
# UniProt Q92804, 231-323: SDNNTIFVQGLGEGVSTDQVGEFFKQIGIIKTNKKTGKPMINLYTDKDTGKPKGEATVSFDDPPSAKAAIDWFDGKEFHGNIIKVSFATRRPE
# Weaker means in comparison with the reference protein, sequence or condition of that experiment.
# Target: TAF15-RRM (Homo sapiens) (UniProt Q92804)
# Experiment: NMR
# Conditions: NMR: 20 mM Na phosphate pH 6.2, 25 mM NaCl, 5% D2O (RRM) or 25 mM Na2SO4, 5 mM beta-mercaptoethanol (TAF15-RRM-RanBP2), 298 K, recombinant protein, residues 231-323
sequence,measurement,setting,value
"GCUGCUG [CUG motif 7-mer, tandem CUG]",binding result,similar CSPs to single-CUG RNAs,binds more weakly
"GGCUGCG [CUG motif 7-mer, single CUG]",binding result,similar profile to CCUCUG,binds more weakly
CCUCUG [CUG motif 6-mer],binding result,"weak binding, seven residues with significant CSPs",binds more weakly
GGUGUG [GGU motif 6-mer],binding result,few CSPs,binds more weakly
